Data from article PMC10182070, “Ligand dependent interaction between PC-TP and PPARδ mitigates diet-induced hepatic steatosis in male mice” (Nature Communications, 2023).
No constants are given. Whether binding was seen depends on the method and setting. In cells and extracts the contact can be indirect. Some binding calls cover weakened binding; strength is not graded here. Sequences can lack the tags named with a protein.

Sequences of proteins named here, by UniProt entry; tags and fusion partners are left off. A change or cut given only in a name is not applied to a line headed by its entry.
UniProt Q03181: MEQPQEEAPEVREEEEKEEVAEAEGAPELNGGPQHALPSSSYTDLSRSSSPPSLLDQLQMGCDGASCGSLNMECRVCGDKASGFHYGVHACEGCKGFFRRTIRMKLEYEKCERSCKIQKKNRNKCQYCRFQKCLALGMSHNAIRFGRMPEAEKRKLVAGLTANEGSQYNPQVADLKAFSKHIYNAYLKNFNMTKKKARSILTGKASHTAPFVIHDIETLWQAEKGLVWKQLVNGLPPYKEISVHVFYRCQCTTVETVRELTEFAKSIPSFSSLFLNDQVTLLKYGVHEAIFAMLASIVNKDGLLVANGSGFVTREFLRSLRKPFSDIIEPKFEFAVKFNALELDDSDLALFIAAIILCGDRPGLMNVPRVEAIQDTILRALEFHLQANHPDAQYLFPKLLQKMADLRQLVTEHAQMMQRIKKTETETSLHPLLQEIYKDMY
UniProt Q01469: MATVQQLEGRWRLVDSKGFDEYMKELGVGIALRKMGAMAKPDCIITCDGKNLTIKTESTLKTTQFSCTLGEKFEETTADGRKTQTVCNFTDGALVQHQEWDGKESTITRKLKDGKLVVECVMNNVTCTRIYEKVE

Key:
[1] = target: Venus-PPARδ (human) (UniProt Q03181); assay: FRET or BRET; BRET in transfected Huh7 cells, nLuc donor and Venus acceptor; full culture media or 0.5% serum (serum starvation)
[2] = target: full-length PPARδ, split nano-luciferase (nano-PCA) fusion (human) (UniProt Q03181); assay: split reporter; nano-PCA in transfected Huh7 cells (100 ng/well of each fusion); fresh culture media or DMEM F-12 with 0.5% serum (mutant panel in 0.5% serum); signal normalized to the highest negative control
[3] = target: full-length PPARδ, split nano-luciferase (nano-PCA) fusion (human) (UniProt Q03181); assay: split reporter; nano-PCA (split nano-luciferase) screen of LTPs against PPARs in transfected HEK293T cells; interactions for each PPAR isoform normalized to the highest interaction; n = 1 biological replicate
[4] = target: Venus-PPARδ (human) (UniProt Q03181); assay: condition: only cells cultured in MCD media (depleted of methionine and choline); FRET or BRET; BRET in transfected Huh7 cells cultured in DMEM F-12 depleted of methionine and choline (MCD media)

Row | Molecule | binding [1] | binding [2] | binding [3] | binding [4]
1 | FABP5, BRET fusion (from UniProt Q01469 1-135) | binds | – | – | –
2 | nano-Luciferase (nLuc)-PC-TP (protein, UniProt Q9UKL6 1-214) MELAAGSFSEEQFWEACAELQQPALAGADWQLLVETSGISIYRLLDKKTGLYEYKVFGVLEDCSPTLLADIYMDSDYRKQWDQYVKELYEQECNGETVVYWEVKYPFPMSNRDYVYLRQRRDLDMEGRKIHVILARSTSMPQLGERSGVIRVKQYKQSLAIESDGKKGSKVFMYYFDNPGGQIPSWLINWAAKNGVPNFLKDMARACQNYLKKT | binds | – | – | no binding

Next, values leading:

Row | binding [1] | binding [2] | binding [3] | binding [4] | Molecule
3 | – | binds | – | – | FABP5, split nano-luciferase (nano-PCA) fusion (from UniProt Q01469 1-135)
4 | – | binds | binds | – | phosphatidylcholine transfer protein (PC-TP), wild type, split nano-luciferase (nano-PCA) fusion (protein, UniProt Q9UKL6 1-214) MELAAGSFSEEQFWEACAELQQPALAGADWQLLVETSGISIYRLLDKKTGLYEYKVFGVLEDCSPTLLADIYMDSDYRKQWDQYVKELYEQECNGETVVYWEVKYPFPMSNRDYVYLRQRRDLDMEGRKIHVILARSTSMPQLGERSGVIRVKQYKQSLAIESDGKKGSKVFMYYFDNPGGQIPSWLINWAAKNGVPNFLKDMARACQNYLKKT
